# Screen size: about 350,000 compounds; about 6,000 (1.7%) were called active. This list was built around the results that the source calls inconclusive (neither active nor inactive); the mix of calls is not that of the screen. Cut-off read from the data, not from the text of the source: active = CPE inhibition above about 20% (passing the limit was not always enough); inconclusive = no clear call, values can overlap the other calls; tested in BHK-21 cells.
# Assay: protection of cells from dengue 2 killing – plate reader, single concentration, primary screen (AID 651640);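 note: 0% = median of neutral control wells and 100% = median of positive control wells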
# Conditions: DENV2-infected cells, cytopathic effect rescue, at 9.99 µM, hits give high values
row,SMILES,CPE inhibition
1,CCN(CC)CCCn1c2c(c(SCC(=O)Nc3ccccc3Cl)nc1=O)CCC2,inconclusive: 30.3%
2,CNC(=S)N/N=C/c1c(C(=O)OC)cnn1-c1ccc(F)cc1F,inconclusive: 20.7%
3,C[C@@H]1CN([C@@H](C)CO)C(=O)c2cc(NC(=O)c3ccccc3)ccc2O[C@@H](C)CCCCO[C@@H]1CN(C)C(=O)CCC(F)(F)F,active: 28.6%
4,O=C(NCc1ccccc1)[C@@H]1[C@@H](CO)[C@@H]2Cn3c(cccc3=O)[C@@H]2N1Cc1ccccc1F,active: 22.9%
5,COc1ccc(-n2c(=O)c3c4c(sc3n3c(=S)[nH]nc23)CCC4)cc1,inactive: 3.33%
6,O=C(O)c1ccccc1NCc1ccco1,inconclusive: 20.9%
7,C[C@@H]1CCCCO[C@H](CN(C)C(=O)Nc2ccc3c(c2)OCO3)[C@H](C)CN([C@@H](C)CO)C(=O)c2cc(NC(=O)Nc3ccccc3)ccc2O1,active: 23%
8,CC(=O)c1cccc(NC(=O)C2Cc3c(-c4ccccc4)ccnc3O2)c1 (stereo not given),inconclusive: 23.3%
9,CN1CCCN=C1/C=C/c1cccs1,active: 73.9%
10,COC(=O)[C@]12CCCCC=C1N(Cc1ccccc1)C(=O)[C@H](CC(=O)NCCc1ccccc1OC)C2,inconclusive: 36.8%
11,C[C@H](CO)N1C[C@H](C)[C@@H](CN(C)Cc2ccc(C(=O)O)cc2)Oc2ccc(NC(=O)Nc3ccc(F)cc3)cc2C1=O,inconclusive: 21.3%
12,Fc1ccc2cc(-c3cccnc3)ncc2c1,inconclusive: 22.3%
13,O=C(COC(=O)COc1cc(Cl)c(Cl)cc1Cl)NC1CC1,inconclusive: 35.8%
14,COc1ccccc1CN(C)C[C@H]1OCc2cn(nn2)CCCC(=O)N([C@@H](C)CO)C[C@@H]1C,inconclusive: 40.4%
15,Cc1csc2ncc(C(=O)Nc3cccc(C(F)(F)F)c3)c(=O)n12,inactive: -7.35%
16,CCCNC(=O)N(C)C[C@H]1Oc2cc(Br)ccc2S(=O)(=O)N([C@@H](C)CO)C[C@@H]1C,inconclusive: 63.1%
17,CCc1c(-c2ccc(F)cc2F)ncn1CCc1ccccc1OC,inconclusive: 21.7%
18,CC1Nc2nc(N(C)C)[nH]c(=O)c2NC1C (stereo not given),inconclusive: 27.3%
19,C/C=C/c1ccc([C@@H]2[C@@H](C#N)N(c3nc(-c4ccccc4)cs3)[C@H]2CO)cc1,inconclusive: 27.3%
20,C[C@@H](CSc1ccc(Br)cc1)CN1CC[C@H](NC(=O)OCc2ccccc2)CCC1=O,active: 75.4%
21,C[C@@H]1CCCCO[C@@H](CN(C)C(=O)Nc2ccc3c(c2)OCO3)[C@H](C)CN([C@H](C)CO)C(=O)c2cc(NS(=O)(=O)c3ccccc3)ccc2O1,inconclusive: 28.7%
22,C[C@@H]1CCCCO[C@H](CN(C)C(=O)Nc2ccccc2)[C@@H](C)CN([C@@H](C)CO)C(=O)c2cc(NS(C)(=O)=O)ccc2O1,inconclusive: 28.6%
23,COCC(C)n1c(SCC(=O)NC(=O)NC2CCCC2)nc2ccccc2c1=O (stereo not given),inconclusive: 25.1%
24,CC(=NNS(=O)(=O)c1cccc([N+](=O)[O-])c1)c1ccc(-n2ccnc2)cc1,inactive: 3.03%
25,O=C(CN1CCCC1)NC(=O)NC1CCCC1,inconclusive: 20.4%

# A few values from the list:
# Entry for O=C(COC(=O)COc1cc(Cl)c(Cl)cc1Cl)NC1CC1 under CPE inhibition: inconclusive: 35.8%
# Entry for O=C(O)c1ccccc1NCc1ccco1 under CPE inhibition: inconclusive: 20.9%
# Entry for CCN(CC)CCCn1c2c(c(SCC(=O)Nc3ccccc3Cl)nc1=O)CCC2 under CPE inhibition: inconclusive: 30.3%
# Entry for CCc1c(-c2ccc(F)cc2F)ncn1CCc1ccccc1OC under CPE inhibition: inconclusive: 21.7%
# Entry for COC(=O)[C@]12CCCCC=C1N(Cc1ccccc1)C(=O)[C@H](CC(=O)NCCc1ccccc1OC)C2 under CPE inhibition: inconclusive: 36.8%

# Following part:

row,SMILES,CPE inhibition
1,O=C(NCCN1CCNCC1)c1ccccc1O,inconclusive: 23.3%
2,CCC(NC(=O)c1cc(COc2ccc(C)nc2)on1)c1ccc(C)cc1 (stereo not given),inconclusive: 28.6%
3,Cc1c(N(C)S(=O)(=O)c2ccc(Cl)c(C(=O)NCC(C)(C)N3CCOCC3)c2)c(=O)n(-c2ccccc2)n1C,inconclusive: 33.7%
4,CC1CN(CC(O)c2ccc(Br)cc2)CCO1 (stereo not given),inconclusive: 32.3%
5,C[C@@H]1CCCCO[C@@H](CN(C)CC2CC2)[C@@H](C)CN([C@H](C)CO)C(=O)c2cc(NC(=O)Nc3ccc(F)cc3)ccc2O1,active: 77.8%
6,CNC(=O)Nc1ccc2snnc2c1,inconclusive: 28.5%
7,C[C@@H]1CN([C@@H](C)CO)C(=O)c2cc(NS(=O)(=O)c3ccc(Cl)cc3)ccc2O[C@@H](C)CCCCO[C@@H]1CN(C)C(=O)CCCN(C)C,active: 20.4%
8,CC1=NN(C(=O)c2ccccc2F)C(O)(c2ccc(Cl)cc2)C1 (stereo not given),inconclusive: 23%
9,COc1ccc(NS(=O)(=O)c2cccc(NC(=O)CCC(=O)c3cccs3)c2)cc1,inconclusive: 23.8%
10,CCN(CC)C(=O)C1=C(C)N(Cc2ccc(C(C)(C)C)cc2)C(=O)C(CC(=O)NCC2CCCCC2)C1 (stereo not given),inconclusive: 48.5%
11,CCCC#Cc1cnc2c(c1)C(=O)N([C@@H](C)CO)C[C@H](C)[C@@H](CN(C)C(=O)Cc1ccccc1)O2,inconclusive: 27.5%
12,O=C([C@H]1[C@H](CO)[C@H]2Cn3c(cccc3=O)[C@@H]1N2Cc1cccc(Cl)c1)N1CCCCC1,active: 33.8%
13,CCOC(=O)C1=C(C(=O)OCC)C2N(Cc3ccc(C(F)(F)F)cc3)c3ccccc3[C@@]23C[C@@H](C(=O)OC)N(S(=O)(=O)c2cccs2)C3=N1 (stereo not given in full),inconclusive: 26.8%
14,CCN(CC)CCn1c2ccccc2c2nc3ccc([N+](=O)[O-])cc3cc21,inactive: -16.7%
15,Cc1cccc(C)c1NC(=S)NC(C)CCc1ccccc1 (stereo not given),active: 46.9%
16,Cc1ccc(C(=O)OCC(=O)Nc2ccc3c(c2)OCO3)c(O)c1,inconclusive: 23.7%
17,COc1ccc2c3c([nH]c2c1)[C@H](CO)N(Cc1ccccc1Cl)CC31CCN(C(C)=O)CC1,active: 22.5%
18,C[C@@H]1CN([C@@H](C)CO)C(=O)c2cc(C#CC(C)(C)O)cnc2O[C@@H]1CN(C)C(=O)c1ccccc1F,inconclusive: 21.1%
19,Fc1cccc(/C=N/Nc2cc(N3CCOCC3)ncn2)c1,inconclusive: 21.4%
20,c1ccc(C2NCCNC2c2ccccc2)cc1 (stereo not given),inconclusive: 54.1%
21,C[C@@H]1CCCCO[C@H](CN(C)S(C)(=O)=O)[C@@H](C)CN([C@H](C)CO)C(=O)c2cc(NS(=O)(=O)c3ccccc3)ccc2O1,inconclusive: 52.8%
22,CCC(=O)N1CCC2(CC1)CN(Cc1cc(F)ccc1F)[C@H](CO)c1c2c2ccc(OC)cc2n1C,inactive: -4.95%
23,COc1cccc(NC2=C(NCCO)C(=O)c3ccccc3C2=O)c1,inconclusive: 23.1%
24,CCNC(=O)C[C@H]1CC[C@H]2[C@H](COc3ccc(NC(=O)Nc4ccccc4Cl)cc3C(=O)N2C)O1,inactive: -9.37%
25,CCc1nc(N2[C@H](C#N)[C@@H](c3ccccc3-c3ccc(F)cc3)[C@H]2CO)sc1C,inactive: -3.07%

row,SMILES,CPE inhibition
1,COc1ccc2nc(SCC(=O)Nc3ccc4[nH]c(=O)[nH]c4c3)[nH]c2c1,inconclusive: 24.6%
2,CCCCN1C(=O)C(=O)NC[C@@H]1CC1CCCCC1,inconclusive: 59.3%
3,CC(C)C#Cc1ccc2c(c1)O[C@@H](CN(C)C(=O)c1cccnc1)[C@@H](C)CN([C@@H](C)CO)S2(=O)=O,inactive: -1.7%
4,CCCC#Cc1ccc2c(c1)O[C@@H](CN(C)Cc1ccncc1)[C@@H](C)CN([C@H](C)CO)S2(=O)=O,inconclusive: 20.7%
5,C[C@@H]1CN([C@@H](C)CO)C(=O)CCCn2nncc2CO[C@@H]1CN(C)C(=O)Nc1ccc(-c2cccs2)cc1,inconclusive: 64.1%
6,C[C@@H]1CN([C@@H](C)CO)C(=O)c2cc(NS(=O)(=O)c3ccc(F)cc3)ccc2O[C@@H]1CN(C)Cc1ccc(C(=O)Nc2ccccc2N)cc1,inconclusive: 46.3%
7,CCCCSCCCNC(=O)c1ccc(CS(=O)(=O)c2ccccc2OC)o1,inconclusive: 22.8%
8,Clc1ccccc1OCCCCN1CCNCC1,inconclusive: 23.4%
9,CCC(C)c1ccccc1N1CC(C(=O)N(C)CC(=O)Nc2cccc(F)c2)CC1=O (stereo not given),inconclusive: 25.3%
10,Cc1ccsc1C(=O)OCC(=O)NC1CCS(=O)(=O)C1 (stereo not given),inactive: 2.36%
11,CCCCCCCCOC(=O)c1c(CSC(=N)N)n(C)c2cc(Br)c(OC(C)=O)cc12,inactive: -4.41%
12,NC(=O)c1cc2ccccc2o/c1=N/NC(=O)c1cccc(F)c1,inconclusive: 39.6%
13,CCOc1ccccc1N(C(=O)Nc1ccc(Cl)cc1)C1=NCCS1,inactive: 3.12%
14,COc1ccc(C(=O)N(CCc2ccccc2)Cc2cccs2)c(OC)c1,inconclusive: 24.9%
15,CC(=O)Nc1ccc(NC(=O)COc2ccc(-c3ccc(C#N)cc3)cc2)cc1,inconclusive: 24.1%
16,Cc1ccc2c(c1)C1(OCCCO1)C(=O)N2CC#N,inconclusive: 22.7%
17,NC(=O)C1CC(=O)N(Cc2ccc3c(c2)OCO3)C(=Nc2ccccc2)S1 (stereo not given),inactive: -1.02%
18,CCCNC(=O)N1CCC2(CC1)CN(C(=O)c1cccnc1)[C@H](CO)c1[nH]c3cc(OC)ccc3c12,inconclusive: 34.2%
19,CCCC#Cc1cnc2c(c1)C(=O)N([C@H](C)CO)C[C@H](C)[C@@H](CN(C)C(=O)c1cccc(F)c1)O2,inactive: 12.4%
20,O=C(NC1CCS(=O)(=O)C1)c1ccc(S(=O)(=O)N2CCCC2)cc1 (stereo not given),inactive: -1.91%
21,C[C@H]1CN=C2N(CCNC(=O)CCC3CCCCC3)[C@H](Cc3ccc(O)cc3)CN21,inconclusive: 25.3%
22,COC(=O)C1=C(C)N(Cc2cccc(C(F)(F)F)c2)C(=NCc2ccc(C(F)(F)F)cc2)NC1c1ccccc1C(F)(F)F (stereo not given),active: 27.6%
23,CCN(Cc1ccccc1)C(=O)CN1C(=S)NC(C)(C)CC1C (stereo not given),active: 65.7%
24,COc1ccc(CCCC(=O)N/N=C/c2cccc(OC)c2O)cc1C,inconclusive: 24.2%
25,CO[C@H]1CN(C)C(=O)c2cc(NS(=O)(=O)c3ccc(C)cc3)ccc2OC[C@H](C)N(C(=O)NC(C)C)C[C@H]1C,inactive: 4.73%

# Reference: PubChem BioAssay AID651640 (Broad Institute, 2012)
